Results reported in PMC12109296.
No constants are given. Whether binding was seen depends on the method and setting. Binding seen in cells or lysates may run through a third protein. Some results given as binding are weak or reduced against the parent protein; the word gives no strength. Sequences can lack the tags named with a protein.

Sequences of proteins named here, by UniProt entry; tags and fusion partners are left off.
UniProt Q9UPP1: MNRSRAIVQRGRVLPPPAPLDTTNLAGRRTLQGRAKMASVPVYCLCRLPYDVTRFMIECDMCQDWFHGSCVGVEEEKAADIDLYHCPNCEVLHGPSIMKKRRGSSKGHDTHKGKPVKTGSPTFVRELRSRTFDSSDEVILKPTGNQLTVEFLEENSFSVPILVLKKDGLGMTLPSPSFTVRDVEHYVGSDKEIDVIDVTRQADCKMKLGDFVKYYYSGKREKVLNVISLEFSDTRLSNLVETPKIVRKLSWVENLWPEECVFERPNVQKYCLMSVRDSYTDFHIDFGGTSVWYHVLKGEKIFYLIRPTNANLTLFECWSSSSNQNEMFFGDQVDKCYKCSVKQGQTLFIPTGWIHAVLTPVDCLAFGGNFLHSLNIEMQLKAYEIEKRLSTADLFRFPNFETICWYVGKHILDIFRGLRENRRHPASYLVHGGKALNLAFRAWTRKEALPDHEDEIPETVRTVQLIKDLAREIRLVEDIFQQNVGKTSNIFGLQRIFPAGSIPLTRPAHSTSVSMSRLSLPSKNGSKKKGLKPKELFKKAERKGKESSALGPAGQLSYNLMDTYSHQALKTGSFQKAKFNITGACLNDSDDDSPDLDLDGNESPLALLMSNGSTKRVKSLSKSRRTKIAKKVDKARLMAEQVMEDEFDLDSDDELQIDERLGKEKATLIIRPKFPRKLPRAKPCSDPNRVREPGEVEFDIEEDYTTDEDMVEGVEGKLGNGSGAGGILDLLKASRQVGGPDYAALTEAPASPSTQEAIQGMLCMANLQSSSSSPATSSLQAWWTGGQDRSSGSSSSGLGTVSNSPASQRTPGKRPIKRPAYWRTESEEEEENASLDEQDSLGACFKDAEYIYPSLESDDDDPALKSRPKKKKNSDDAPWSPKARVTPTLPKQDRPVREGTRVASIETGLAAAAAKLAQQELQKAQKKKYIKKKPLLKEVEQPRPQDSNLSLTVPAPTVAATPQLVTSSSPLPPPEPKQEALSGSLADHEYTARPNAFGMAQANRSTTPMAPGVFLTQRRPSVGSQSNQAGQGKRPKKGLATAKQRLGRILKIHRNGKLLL

B1: GFP fusion of KDM2A (amino acids 822–946) (domain or fragment, UniProt Q9Y2K7-1 822-946)
chain: ITASSANLRHSPRVLVQHCPARTPQRGDEEGLGGEEEEEEEEEEEDDSAEEGGAARLNGRGSWAQDGDESWMQREVWMSVFRYLSRRELCECMRVCKTWYKWCCDKRLWTKIDLSRCKAIVPQAL
B2: GFP fusion of KDM2A (amino acids 822–898) (domain or fragment, UniProt Q9Y2K7-1 822-898)
chain: ITASSANLRHSPRVLVQHCPARTPQRGDEEGLGGEEEEEEEEEEEDDSAEEGGAARLNGRGSWAQDGDESWMQREVW
B3: GFP-KDM2A (amino acids 667–1162) (domain or fragment, UniProt Q9Y2K7-1 667-1162)
chain: PNCWECPKCYQEDSSEKAQKRKMEESDEEAVQAKVLRPLRSCDEPLTPPPHSPTSMLQLIHDPVSPRGMVTRSSPGAGPSDHHSASRDERFKRRQLLRLQATERTMVREKENNPSGKKELSEVEKAKIRGSYLTVTLQRPTKELHGTSIVPKLQAITASSANLRHSPRVLVQHCPARTPQRGDEEGLGGEEEEEEEEEEEDDSAEEGGAARLNGRGSWAQDGDESWMQREVWMSVFRYLSRRELCECMRVCKTWYKWCCDKRLWTKIDLSRCKAIVPQALSGIIKRQPVSLDLSWTNISKKQLTWLVNRLPGLKDLLLAGCSWSAVSALSTSSCPLLRTLDLRWAVGIKDPQIRDLLTPPADKPGQDNRSKLRNMTDFRLAGLDITDATLRLIIRHMPLLSRLDLSHCSHLTDQSSNLLTAVGSSTRYSLTELNMAGCNKLTDQTLIYLRRIANVTLIDLRGCKQITRKACEHFISDLSINSLYCLSDEKLIQKIS
B4: GFP-A’ region (KDM2A amino acids 667–946, S731A) (domain or fragment, UniProt Q9Y2K7-1 667-946)
chain: PNCWECPKCYQEDSSEKAQKRKMEESDEEAVQAKVLRPLRSCDEPLTPPPHSPTSMLQLIHDPVAPRGMVTRSSPGAGPSDHHSASRDERFKRRQLLRLQATERTMVREKENNPSGKKELSEVEKAKIRGSYLTVTLQRPTKELHGTSIVPKLQAITASSANLRHSPRVLVQHCPARTPQRGDEEGLGGEEEEEEEEEEEDDSAEEGGAARLNGRGSWAQDGDESWMQREVWMSVFRYLSRRELCECMRVCKTWYKWCCDKRLWTKIDLSRCKAIVPQAL
B5: GFP fusion of KDM2A (amino acids 893–946) (domain or fragment, UniProt Q9Y2K7-1 893-946)
chain: MQREVWMSVFRYLSRRELCECMRVCKTWYKWCCDKRLWTKIDLSRCKAIVPQAL
B6: GFP-KDM2A (amino acids 667–1118, S731A) (domain or fragment, UniProt Q9Y2K7-1 667-1118)
chain: PNCWECPKCYQEDSSEKAQKRKMEESDEEAVQAKVLRPLRSCDEPLTPPPHSPTSMLQLIHDPVAPRGMVTRSSPGAGPSDHHSASRDERFKRRQLLRLQATERTMVREKENNPSGKKELSEVEKAKIRGSYLTVTLQRPTKELHGTSIVPKLQAITASSANLRHSPRVLVQHCPARTPQRGDEEGLGGEEEEEEEEEEEDDSAEEGGAARLNGRGSWAQDGDESWMQREVWMSVFRYLSRRELCECMRVCKTWYKWCCDKRLWTKIDLSRCKAIVPQALSGIIKRQPVSLDLSWTNISKKQLTWLVNRLPGLKDLLLAGCSWSAVSALSTSSCPLLRTLDLRWAVGIKDPQIRDLLTPPADKPGQDNRSKLRNMTDFRLAGLDITDATLRLIIRHMPLLSRLDLSHCSHLTDQSSNLLTAVGSSTRYSLTELNMAGCNKLTDQTLIYLRRI
B7: KDM2A (amino acids 1–824) (domain or fragment, UniProt Q9Y2K7-1 1-824)
chain: MEPEEERIRYSQRLRGTMRRRYEDDGISDDEIEGKRTFDLEEKLHTNKYNANFVTFMEGKDFNVEYIQRGGLRDPLIFKNSDGLGIKMPDPDFTVNDVKMCVGSRRMVDVMDVNTQKGIEMTMAQWTRYYETPEEEREKLYNVISLEFSHTRLENMVQRPSTVDFIDWVDNMWPRHLKESQTESTNAILEMQYPKVQKYCLMSVRGCYTDFHVDFGGTSVWYHIHQGGKVFWLIPPTAHNLELYENWLLSGKQGDIFLGDRVSDCQRIELKQGYTFVIPSGWIHAVYTPTDTLVFGGNFLHSFNIPMQLKIYNIEDRTRVPNKFRYPFYYEMCWYVLERYVYCITNRSHLTKEFQKESLSMDLELNGLESGNGDEEAVDREPRRLSSRRSVLTSPVANGVNLDYDGLGKTCRSLPSLKKTLAGDSSSDCSRGSHNGQVWDPQCAPRKDRQVHLTHFELEGLRCLVDKLESLPLHKKCVPTGIEDEDALIADVKILLEELANSDPKLALTGVPIVQWPKRDKLKFPTRPKVRVPTIPITKPHTMKPAPRLTPVRPAAASPIVSGARRRRVRCRKCKACVQGECGVCHYCRDMKKFGGPGRMKQSCVLRQCLAPRLPHSVTCSLCGEVDQNEETQDFEKKLMECCICNEIVHPGCLQMDGEGLLNEELPNCWECPKCYQEDSSEKAQKRKMEESDEEAVQAKVLRPLRSCDEPLTPPPHSPTSMLQLIHDPVSPRGMVTRSSPGAGPSDHHSASRDERFKRRQLLRLQATERTMVREKENNPSGKKELSEVEKAKIRGSYLTVTLQRPTKELHGTSIVPKLQAITA
B8: KDM2A (amino acids 1–732)-GFP (domain or fragment, UniProt Q9Y2K7-1 1-732)
chain: MEPEEERIRYSQRLRGTMRRRYEDDGISDDEIEGKRTFDLEEKLHTNKYNANFVTFMEGKDFNVEYIQRGGLRDPLIFKNSDGLGIKMPDPDFTVNDVKMCVGSRRMVDVMDVNTQKGIEMTMAQWTRYYETPEEEREKLYNVISLEFSHTRLENMVQRPSTVDFIDWVDNMWPRHLKESQTESTNAILEMQYPKVQKYCLMSVRGCYTDFHVDFGGTSVWYHIHQGGKVFWLIPPTAHNLELYENWLLSGKQGDIFLGDRVSDCQRIELKQGYTFVIPSGWIHAVYTPTDTLVFGGNFLHSFNIPMQLKIYNIEDRTRVPNKFRYPFYYEMCWYVLERYVYCITNRSHLTKEFQKESLSMDLELNGLESGNGDEEAVDREPRRLSSRRSVLTSPVANGVNLDYDGLGKTCRSLPSLKKTLAGDSSSDCSRGSHNGQVWDPQCAPRKDRQVHLTHFELEGLRCLVDKLESLPLHKKCVPTGIEDEDALIADVKILLEELANSDPKLALTGVPIVQWPKRDKLKFPTRPKVRVPTIPITKPHTMKPAPRLTPVRPAAASPIVSGARRRRVRCRKCKACVQGECGVCHYCRDMKKFGGPGRMKQSCVLRQCLAPRLPHSVTCSLCGEVDQNEETQDFEKKLMECCICNEIVHPGCLQMDGEGLLNEELPNCWECPKCYQEDSSEKAQKRKMEESDEEAVQAKVLRPLRSCDEPLTPPPHSPTSMLQLIHDPVSP

target: Flag-tagged PHF8 (PHD finger protein 8) (UniProt Q9UPP1); experiment: co-IP; Flag-PHF8 co-expressed with KDM2A or KDM2A constructs in 293T cells; lysates in IP buffer (0.1% Triton X-100, 300 mM NaCl, 300 mM sucrose, 1 mM MgCl2, 1 mM EGTA, 10 mM PIPES pH 7.0) precipitated with anti-Flag M2 agarose; Western blot with anti-KDM2A or anti-GFP; in Figure 4A cells with or without 2 mM 2DG for 2 h

| binding | Binder |
| --- | --- |
| binds | B1 |
| no binding | B2 |
| binds | B3 |
| binds | ANVTLIDLRGCKQITRKACEHFISDLSINSLYCLSDEKLIQKIS (domain or fragment, UniProt Q9Y2K7-1 1119-1162) [GFP fusion of KDM2A (amino acids 1119–1162)] |
| binds | B4 |
| no binding | B5 |
| binds | B6 |
| binds weakly | B7 |
| binds weakly | B8 |
